Source: PubChem BioAssay AID540256 (National Center for Advancing Translational Sciences (NCATS), 2011)
Screen size: about 300,000 compounds; about 3,700 (1.2%) were called active. Inconclusive results, whose numbers are uncertain, are shown with a selection of clear calls. The call rests on the fitted dose curve; tested in HEK293 cells. A potency beside an inconclusive call is a rough fit, not a confirmed value.

Assay: qHTS for Inhibitors of binding or entry into cells for Lassa Virus; further: nearly all actives have a fitted effect of over 50% in size
Details: Lassa virus pseudotype entry inhibition, cell reporter; activity change, negative = inhibition: at 37.9 µM (top of the series) unless noted
On the % scale 0 is the no-effect control and ±100 the full control effect; potency means the concentration at half of the fitted maximal effect.

Row | Compound | Potency | activity change, negative = inhibition
1 | C/C=C/C(=O)OCC(=O)Nc1ccc(C)c(S(=O)(=O)N(C)C)c1 | inconclusive: 35.5 µM [inhibitor, single point] | 
2 | O=C(CSc1n[nH]c(-c2ccccn2)n1)Nc1ccccc1 | inconclusive: 3.16 µM [inhibitor, partial curve, poor fit] | 
3 | COc1ccccc1C(=O)N1c2ccccc2C(C)(c2ccc(Cl)cc2)CC1(C)C (stereo not given) | inconclusive: 35.5 µM [inhibitor, single point] | 
4 | COC(=O)c1ccc(Cn2cnc3c(N)ncnc32)cc1 | inconclusive: 2.82 µM [activator, partial curve, poor fit] | 
5 | COCCNC(=O)C1CCN(Cc2cccc(OCc3ccccc3)c2)CC1 | inconclusive: 0.708 µM [activator, single point] | 
6 | Cc1ccc(Cn2nc(C)c(NC(=O)CCCn3nc([N+](=O)[O-])c(Cl)c3C)c2C)cc1 | inconclusive: 35.5 µM [inhibitor, single point] | 
7 | CN(C)c1ccc(-c2noc(C3CC(=O)N(c4ccc5c(c4)OCCO5)C3)n2)cc1 (stereo not given) | inactive | 
8 | COc1ccc(OC)c(-n2nnnc2SCC(=O)O)c1 | inconclusive: 29.1 µM [inhibitor, single point] | 
9 | O=C(Nc1ccc(S(=O)(=O)N2CCCCC2c2cccnc2)cc1)c1ccc(F)cc1 (stereo not given) | inconclusive: 10 µM [inhibitor, partial curve] | 
10 | O=C(Nc1nc(-c2ccccn2)cs1)c1ccc(Br)s1 | inconclusive: 18.3 µM [inhibitor, partial curve] | 
11 | O=C(NCCCCNC(=O)c1c(F)c(F)c(F)c(F)c1F)c1c(F)c(F)c(F)c(F)c1F | inconclusive: 6.51 µM [activator, partial curve, poor fit] | 
12 | Cc1cccc(NC(=O)c2ccc(S(=O)(=O)NCc3cccnc3)cc2)c1C | inconclusive: 5.62 µM [inhibitor, single point] | 
13 | CCCCN(C)CCCNC(=O)CN1C(=O)CSc2ccc(S(=O)(=O)N3CCOCC3)cc21 |  | inconclusive: 20.1% [activator]
14 | CN(C)S(=O)(=O)c1cccc2c1C(=O)c1ccccc1C2=O | inactive | 
15 | O=C(Nc1ccc(Nc2ccccc2)cc1)C(Cl)(Cl)Cl | inactive | 
16 | COc1cc2oc(=O)c(CC(=O)NCCc3ccccc3F)c(C)c2cc1OC | inactive | 
17 | Cc1cc(C(C)(C)C)ccc1OCCCCN1CCCC1 | inconclusive: 12.6 µM [inhibitor, partial curve] | 
18 | COc1ccccc1Nc1ncc(C(=O)N2CCN(Cc3ccc(OC)c(OC)c3OC)CC2)c2ccccc12 | active: 12.6 µM | 
19 | O=C(Cn1c(=O)nc(-c2ccccc2F)c2cc(Cl)ccc21)Nc1ccccc1C(F)(F)F | inconclusive: 31.6 µM [inhibitor, single point] | 
20 | Cc1cc(N/C=C(\C#N)S(=O)(=O)c2ccc(Cl)cc2)nc(C)n1 | inconclusive: 15.8 µM [activator, single point] | 
21 | Cc1ccc(CNC(=O)C2CCCCN2S(=O)(=O)c2ccccc2)cc1 (stereo not given) | inconclusive: 1.26 µM [inhibitor, full curve, poor fit] | 
22 | O=C(NC1CCCCC1)C(c1ccco1)N(C(=O)c1csnn1)c1cccc(Cl)c1 (stereo not given) | inconclusive: 1.26 µM [inhibitor, single point] | 

Part of the list above, with tabs.
Row	Compound	Potency	activity change, negative = inhibition
10	O=C(Nc1nc(-c2ccccn2)cs1)c1ccc(Br)s1	inconclusive: 18.3 µM [inhibitor, partial curve]	
11	O=C(NCCCCNC(=O)c1c(F)c(F)c(F)c(F)c1F)c1c(F)c(F)c(F)c(F)c1F	inconclusive: 6.51 µM [activator, partial curve, poor fit]	
12	Cc1cccc(NC(=O)c2ccc(S(=O)(=O)NCc3cccnc3)cc2)c1C	inconclusive: 5.62 µM [inhibitor, single point]	

Additional results:

Row | Compound | Potency | activity change, negative = inhibition
23 | COc1cccc(CNCCc2c[nH]c3ccccc23)c1 | inconclusive: 35.5 µM [inhibitor, single point] | 
24 | O=C(c1ccco1)N1CCC(c2nc3c(nnn3Cc3ccccc3Cl)c(=O)[nH]2)CC1 | inconclusive: 2.82 µM [inhibitor, full curve, poor fit] | 
25 | COCCNC(=S)N/N=C(\C)c1cccc(C(F)(F)F)c1 | inconclusive: 22.4 µM [inhibitor, single point] | 
26 | CCOc1ccccc1NC(=O)CN1C(=O)COc2ccc(S(=O)(=O)Nc3ccccc3)cc21 | inactive | 
27 | COc1ccc(CNS(=O)(=O)CCNCc2ccco2)cc1 | inconclusive: 22.3 µM [activator, partial curve, poor fit] | 
28 | COCCCN1C(=O)c2ccc(C(=O)NCCc3ccccc3)cc2C1=O | inconclusive: 31.6 µM [activator, single point] | 
29 | O=C(C=Cc1cccc([N+](=O)[O-])c1)c1ccccc1 | inconclusive: 2.99 µM [inhibitor, partial curve, poor fit] | 
30 | CCOC(=O)c1ccc(NC(=S)N(CCCN2CCCC(C)C2)Cc2ccco2)cc1 (stereo not given) | inconclusive: 20.6 µM [inhibitor, single point] | 
31 | CCCN(CCC)S(=O)(=O)c1ccc(C(=O)Nc2ccc(OCC(=O)N3CCOCC3)cc2)cc1 | inconclusive: 32.6 µM [inhibitor, single point] | 
32 | CCCn1c2ccccc2c2nnc(SCCN3CCOCC3)nc21 | inconclusive: 17.8 µM [inhibitor, single point] | 
33 | CO/N=C\CC(=O)Nc1ccc(Oc2ccccc2)cc1 | inconclusive: 2.51 µM [inhibitor, single point] | 
34 | CCNC(=S)N1CCn2cccc2C1c1ccc(F)cc1 (stereo not given) | inconclusive: 35.5 µM [inhibitor, single point] | 
35 | CCOC(=O)C1CCCN(Cc2c(C(=O)N3CCCCC3)nc3c(C)cccn23)C1 (stereo not given) | inactive | 
36 | O=C(NCc1ccccc1)C1CCCN(S(=O)(=O)c2ccc(F)cc2)C1 (stereo not given) | inconclusive: 5.01 µM [activator, partial curve, poor fit] | 
37 | C=CCn1c(N)c(C(=O)Nc2ccccc2)c2nc3ccccc3nc21 | inactive | 
38 | O=C(O)c1cc(/C=C/c2ccc(N3CCOCC3)cc2)nc2ccccc12 | inconclusive: 14.1 µM [inhibitor, partial curve, poor fit] | 
39 | O=C(CN1C(=O)CSc2cc(S(=O)(=O)N3CCCCCC3)ccc21)NCCc1ccccc1 | inconclusive: 20.6 µM [inhibitor, partial curve, poor fit] | 
40 | Cc1c(NC(=O)c2coc(=O)c(Br)c2)c(=O)n(-c2ccccc2)n1C | inconclusive: 35.5 µM [inhibitor, single point] | 
41 | CC(C)(C)c1ccc(C(=O)N2CCC(=O)N(C(COCc3ccccc3)Cc3ccccc3)CC2)cc1 (stereo not given) | active: 8.2 µM | 
42 | Cc1ccc(SCCC(=O)N/N=C/c2ccccc2O)cc1 | inconclusive: 35.5 µM [inhibitor, partial curve, poor fit] | 
43 | CCCCN(CC)S(=O)(=O)c1ccc(C(=O)Nc2nnc(-c3cccs3)o2)cc1 | inconclusive: 14.1 µM [inhibitor, partial curve, poor fit] | 
44 | Cc1ccc(S(=O)(=O)N2CCc3ccccc3CC2)cc1 | inconclusive: 1 µM [inhibitor, full curve] | 

Row | Compound | Potency | activity change, negative = inhibition
45 | CC(=O)NS(=O)(=O)c1ccc(NC(=O)CC(C)c2ccccc2)cc1 (stereo not given) | inactive | 
46 | Cc1cc(C)c(NC(=O)CN2C(=O)CCn3nc(-c4cccn4C)cc32)c(C)c1 | inconclusive: 1 µM [activator, full curve, poor fit] | 
47 | CN(C)Cc1cc(C(C)(C)c2ccccc2)ccc1O | inconclusive: 35.5 µM [inhibitor, single point] | 
48 | O=C(N/N=C/c1sc(=O)[nH]c1-[n+]1ccccc1)c1ccccc1[O-] | inactive | 
49 | CC1(C)CC(CCNCc2ccc3c(c2)OCO3)(Cc2ccccc2)CCO1 (stereo not given) | inconclusive: 35.5 µM [inhibitor, single point] | 
50 | Cc1cccc(NC(=O)CN(C)S(=O)(=O)c2cnc[nH]2)c1C | inactive | 
51 | COc1ccccc1C(CNC(=O)C1CC(=O)N(Cc2ccc(C)cc2)C1)N1CCCC1 (stereo not given) | inactive | 
52 | COc1ccccc1N1C(=O)C2CCC(c3ccccc3)CC2C1=O (stereo not given) | inconclusive: 0.651 µM [inhibitor, partial curve, poor fit] | 
53 | CCOC(=O)Cn1c(N2CCOCC2)nc2c1c(=O)[nH]c(=O)n2C | inactive | 
54 | CC(=O)c1ccc(NC(=S)NCCc2cccc(Cl)c2)cc1 | inconclusive: 3.55 µM [activator, partial curve, poor fit] | 
55 | CCSc1nnc(NC(=O)C2CCCCC2)s1 | inconclusive: 2 µM [activator, partial curve, poor fit] | 
56 | CN(C)CCCN(C(=O)c1ccc(S(=O)(=O)N2CCc3ccccc32)cc1)c1nc2ccc(Cl)cc2s1 | inconclusive: 28.2 µM [inhibitor, single point] | 
57 | Cc1ccc(Cl)cc1NC(=O)c1cc(-c2ccc3c(c2)OCCO3)on1 | inconclusive: 10 µM [activator, partial curve, poor fit] | 
58 | Cc1ccc(Cn2cccc2/C=C2/C(=N)N3C=CSC3=NC2=O)cc1 | inconclusive: 3.98 µM [inhibitor, single point] | 
59 | CCOC(=O)c1c(C)n(-c2ccc(C)cc2)c2ccc(OCC(O)CN3CCN(C)CC3)cc12 (stereo not given) | inconclusive: 22.4 µM [inhibitor, single point] | 
60 | Cc1cccc(-n2nnnc2SCC(=O)NCCN2C(=O)CSC2=O)c1 | inconclusive: 1.3 µM [inhibitor, partial curve, poor fit] | 
61 | Cc1ccc(C(=O)CSc2nnc(-c3ccccc3)n2-c2ccccc2)o1 | inconclusive: 20.6 µM [inhibitor, partial curve, poor fit] | 
62 | O=[N+]([O-])c1cc(C(F)(F)F)ccc1Sc1nccn1Cc1ccccc1 | inactive | 
63 | Cc1ccc(NC(=O)CSc2nn3c(=O)c(C)nnc3s2)cc1Cl | inactive | 
64 | Cc1ccc(-c2nnc(-c3ccc4c(c3)OCO4)o2)cc1 | inactive | 
65 | COc1cccc(C(=O)/C=C/c2ccc(OCC#N)c(OC)c2)c1 | inconclusive: 18.4 µM [inhibitor, partial curve, poor fit] | 
